Results: patent publication US6284785A, “1-arenesulfonyl-2-aryl-pyrrolidine and pyridine derivatives” (Hoffmann- La Roche Inc., priority 1999, dated 2001)
At least one structure is not confirmed: it was looked up by name or label, or the drawing left a doubt.

Amino acid sequences for entries named in this document (tags omitted). Residues count along the entry.
UniProt P23385, 19-1199: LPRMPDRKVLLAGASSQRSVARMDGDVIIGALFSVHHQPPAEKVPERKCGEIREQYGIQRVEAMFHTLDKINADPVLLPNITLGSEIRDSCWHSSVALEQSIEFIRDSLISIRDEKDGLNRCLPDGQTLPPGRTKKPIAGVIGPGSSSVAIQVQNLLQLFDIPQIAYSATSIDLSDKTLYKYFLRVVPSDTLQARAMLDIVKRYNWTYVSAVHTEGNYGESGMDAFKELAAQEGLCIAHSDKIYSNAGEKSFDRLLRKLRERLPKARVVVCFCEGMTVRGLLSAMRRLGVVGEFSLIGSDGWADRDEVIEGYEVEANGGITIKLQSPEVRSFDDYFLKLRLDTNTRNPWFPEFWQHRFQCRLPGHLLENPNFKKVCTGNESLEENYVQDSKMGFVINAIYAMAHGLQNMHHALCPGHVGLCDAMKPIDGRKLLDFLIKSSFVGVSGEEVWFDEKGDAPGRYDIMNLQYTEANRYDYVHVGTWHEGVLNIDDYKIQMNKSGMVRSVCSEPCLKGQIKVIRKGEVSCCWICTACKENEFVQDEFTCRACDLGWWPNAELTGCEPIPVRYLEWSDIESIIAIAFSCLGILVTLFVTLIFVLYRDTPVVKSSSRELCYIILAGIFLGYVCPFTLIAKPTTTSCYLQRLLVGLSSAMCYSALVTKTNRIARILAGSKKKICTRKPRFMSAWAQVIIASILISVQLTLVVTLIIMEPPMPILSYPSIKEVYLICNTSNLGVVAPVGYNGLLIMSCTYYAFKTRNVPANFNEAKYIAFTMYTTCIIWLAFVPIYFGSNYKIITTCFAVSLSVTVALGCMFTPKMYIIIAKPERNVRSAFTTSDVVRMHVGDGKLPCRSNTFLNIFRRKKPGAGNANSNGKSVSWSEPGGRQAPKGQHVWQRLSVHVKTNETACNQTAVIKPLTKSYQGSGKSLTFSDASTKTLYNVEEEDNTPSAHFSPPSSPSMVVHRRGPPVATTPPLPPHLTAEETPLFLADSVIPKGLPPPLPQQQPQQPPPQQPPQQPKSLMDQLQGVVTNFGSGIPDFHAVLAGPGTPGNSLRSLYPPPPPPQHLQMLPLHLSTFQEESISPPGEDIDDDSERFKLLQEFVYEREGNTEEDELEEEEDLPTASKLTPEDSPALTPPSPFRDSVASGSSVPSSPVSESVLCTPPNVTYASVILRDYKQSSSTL

Target: T1, rat mGlu 1a receptor (Rattus norvegicus, UniProt P23385)
T1 construct: expressed in transfected cells; host or cells: EBNA cells (transient transfection)
Assay: [Ca2+]i measurements (FLIPR, Fluo-3 AM) on mGlu 1a transfected EBNA cells; agonist or antagonist (against 10 μM glutamate)
Assay type: cell-based
Details: for Remarks (agonist / antagonist): table of substituents of the Examples, column Remarks
Protocol: cDNA encoding rat mGlu 1a receptor obtained from Prof. Nakanishi (Kyoto, Japan) was transiently tranfected into EBNA cells using a procedure described by Schlaeger et. al, New Dev. New Appl. Anim Cell Techn., Proc. ESACT Meet., 15th (1998), 105-112 and 117-120. [Ca^2+ ]i measurements were performed on mGlu 1a transfected EBNA cells after incubation of the cells with Fluo-3 AM (0.5 μM final concentration) for 1hour at 37° C. followed by 4 washes with assay buffer (DMEM supplemented with Hank's salt and 20 mM HEPES. [Ca^2+ ]i measurements were done using a fluorometric imaging plate reader (FLIPR, Molecular Devices Corporation, La Jolla, Calif. USA). When compounds were evaluated as antagonists they were tested against 10 μM glutamate as agonist.
The inhibition (antagonists) or activation (agonists) curves were fitted with a four parameter logistic equation giving EC50, IC50, and Hill coefficient using the iterative non linear curve fitting software Origin (Microcal Software Inc., Northampton, Mass., USA).

Row | SMILES | Remarks (agonist / antagonist) | agonistic / antagonistic activity to the mGlu receptor
1 | O=S(=O)(c1ccc(Cl)cc1)N1CCCC1c1ccc(C(F)(F)F)cc1 (racemic) [Example 49, (RS)-1-(4Chloro-benzenesulfonyl)-2-(4-trifluoromethyl-phenyl)-pyrrolidine] | Antagonist | 
2 | Cc1ccc(S(=O)(=O)N2CC[C@@H](C)[C@@H]2c2ccc(F)cc2)cc1 (relative stereo) [Example 90, (2RS,3RS)-2-(4-Fluoro-phenyl)-3-methyl-1-(toluene-4-sulfonyl)-pyrrolidine] | agonist | agonistic activty
